Experimental data taken from PubChem BioAssay AID504444 (National Center for Advancing Translational Sciences (NCATS), 2011).
Hit rate of the full screen: of about 360,000 compounds, about 7,500 (2.1%) were called active. This list was built around the results that the source calls inconclusive (neither active nor inactive); the mix of calls is not that of the screen. Calls come from the whole dose curve; as a rule, active = well fitted inhibition curve with a large enough effect; inconclusive = small, poorly fitted or top-dose-only effect, or effect the other way; inactive = flat fitted curve, though single readings scatter. A potency beside an inconclusive call is a rough fit, not a confirmed value.

assay: Nrf2 qHTS screen for inhibitors; conditions: A549 ARE-Fluc reporter, luciferase luminescence, 18-24 h; series mostly up to 46 µM; note: nearly all actives have a fitted effect of over 60% in size
Method in brief: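 Nrf2 activity is the BugLite luminescence, read 15 min after reagent at room temperature, following CellTiter-Fluor cytotoxicity readout (30 min, 37C). Compound titrations were applied for 18-24 h to 5000 A549 ARE_Fluc cells/well in 5% FBS OPTI-MEM.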
Potency is the fitted concentration of half-maximal effect.

SMILES | Potency
Cc1nn(-c2ccccc2)c(Cl)c1C(=O)Nc1c(C)n(C)n(-c2ccccc2)c1=O | inconclusive: 20.6 µM [activator, single point]
CCc1ccc2[nH]c3nc(SCCN4CCOCC4)nnc3c2c1 | inconclusive: 29.1 µM [falling, partial curve, poor fit]
COc1cc(/C=C(\C#N)C(=O)Nc2ccccn2)ccc1O | inactive
Cc1cc(Cl)ccc1OCc1cn2cccnc2n1 | inconclusive: 23.1 µM [activator, single point]
N#Cc1c(N2CCCC(O)C2)nc(N)c2c(N)nc3c(c12)CC(=O)N3C12CC3CC(CC(C3)C1)C2 (centres undefined) | inconclusive: 29.1 µM [falling, single point]
Fc1ccccc1N1CCN(Cc2cc(-c3ccccc3)on2)CC1 | inactive
N/C(=N\OC(=O)c1ccc(Cl)cc1)c1ccn[nH]1 | inconclusive: 1.84 µM [activator, single point]
CC(C)(C)C(=O)N/C(N)=N/c1nc2ccccc2o1 | inconclusive: 0.82 µM [activator, full curve]
CCN(CC)c1nc2c(-c3cccc(Br)c3)nnn2c2ccccc12 | inconclusive: 25.9 µM [activator, single point]
O=C1c2ccccc2-c2nnc(-c3ccc(F)cc3)cc21 | inconclusive: 8.2 µM [activator, partial curve]
COc1cccc(NC(=O)C2CCN(S(=O)(=O)c3cccc4nonc34)CC2)c1 | inactive
Cc1ccccc1C(=O)Nc1cccc(-c2ccc(N3CCOCC3)nn2)c1 | inactive
Cc1cc(C(=O)Nc2ccc(S(=O)(=O)Nc3onc(C)c3C)cc2)c(C)o1 | inconclusive: 11.6 µM [activator, partial curve, poor fit]
Cc1cc(C)c(C)c(S(=O)(=O)N2CCN(c3ccccn3)CC2)c1C | inconclusive: 25.9 µM [falling, single point]
CC(C)=CC(=O)Nc1ccc2c(c1)OCO2 | inconclusive: 1.16 µM [activator, full curve]
CCN1C(=O)/C(=C/C=C2/SCCN2C)SC1=S | inconclusive: 0.461 µM [activator, full curve, poor fit]
COc1ccc(CCNC(=S)NCc2ccc(Cl)c(Cl)c2)cc1OC | inactive
COCCOC(=O)c1c(NC(=O)CNCc2ccco2)sc(C(N)=O)c1C | inconclusive: 32.6 µM [falling, partial curve, poor fit]
O=C(CSc1ccc(F)cc1)N1CCC(c2nc3ccccc3s2)CC1 | active: 18.4 µM
O=c1[nH]c(C2CCN(S(=O)(=O)c3ccc(C(F)(F)F)cc3)CC2)nc2c1nnn2Cc1ccccc1 | inconclusive: 10.3 µM [falling, partial curve]
CC1Cc2nc(SCC(=O)Nc3ccc4c(c3)OCO4)n(CCc3ccccc3)c(=O)c2S1 (centres undefined) | inactive
OCCCNc1ncnc2[nH]ncc12 | inconclusive: 16.4 µM [falling, partial curve, poor fit]

SMILES | Potency
C#CCSc1nnc(-c2cccc3ccccc23)o1 | inactive
CC1CC(C)CN(C(=O)CSc2ncnc3sccc23)C1 (centres undefined) | inactive
Cc1oc(-c2cccc3ccccc23)nc1CN1CCC[C@H]1CO | inconclusive: 29.1 µM [falling, single point]
Cc1cc(C)c2c(N)c3cccc(C)c3nc2n1 | active: 7.31 µM
Cc1ccc(S(=O)(=O)N(C)c2ccc(C(=O)O)cc2)cc1 | inconclusive: 0.517 µM [falling, partial curve]
Cn1c(COc2ccccc2)nnc1SCC(=O)NNC(=O)C1CCCCC1 | inconclusive: 0.731 µM [falling, single point]
O=C(NCc1ccco1)/C(=C/C=C\c1ccccc1)NC(=O)c1ccc(Br)o1 | inactive
CCN1CCN(c2cc3c(nn2)Oc2ccccc2N3C)CC1 | inactive
N/C(=N\OC(=O)c1ccc2ccccc2c1)c1ccccn1 | inconclusive: 2.31 µM [activator, partial curve]
c1ccc(-c2onc(-c3ccco3)c2-c2ccc3[nH]ccc3c2)cc1 | inconclusive: 29.1 µM [falling, single point]
O=C(OCc1ccc([N+](=O)[O-])cc1)c1cc(S(=O)(=O)N2CCCCC2)ccc1N1CCOCC1 | inconclusive: 13 µM [falling, partial curve, poor fit]
O=[N+]([O-])c1ccc2nc(-[n+]3c(-c4ccccc4)cc(-c4ccccc4)cc3-c3ccccc3)[nH]c2c1 | inconclusive: 23.1 µM [falling, single point]
Cc1ccc(C(=O)NN=CC(=O)c2ccccc2)c(C)c1 | inconclusive: 23.1 µM [activator, single point]
O=C(c1c(F)cccc1F)N1CCCC(c2nc(-c3ccc(Cl)cc3)no2)C1 (centres undefined) | inconclusive: 18.4 µM [falling, single point]
CC1CCN(CCNC(=O)C2CCCN(S(=O)(=O)c3cccc4nsnc34)C2)CC1 (centres undefined) | inconclusive: 6.51 µM [activator, partial curve, poor fit]
CCc1ccc(-c2cc(C)no2)cc1S(=O)(=O)N1CCN(c2ccc(OC)cc2)CC1 | inconclusive: 20.6 µM [falling, single point]
O=[N+]([O-])c1ccccc1NCCOc1ccccc1 | inconclusive: 20.6 µM [activator, partial curve]
CCn1c(SCC(=O)N2CCCc3ccccc32)nnc1-c1c[nH]c2ccccc12 | inconclusive: 29.1 µM [falling, single point]
COc1ccccc1C(=O)Nc1nnc(-c2ccco2)s1 | inconclusive: 1.16 µM [activator, full curve, poor fit]
COC(=O)c1ccc(C(=O)NC2CCCc3c2cnn3-c2ccc(C)c(C)c2)cc1 (centres undefined) | inconclusive: 11.6 µM [falling, partial curve, poor fit]
Cc1ccccc1NC(=O)Cn1nnc2ccccc21 | inconclusive: 11.6 µM [activator, partial curve, poor fit]
CN(C)c1ccc(/C=N/NC(=O)c2ccccn2)cc1 | inconclusive: 1.64 µM [activator, partial curve]

Compounds from the list above with a cyano group:
SMILES | Potency
COc1cc(/C=C(\C#N)C(=O)Nc2ccccn2)ccc1O | inactive
N#Cc1c(N2CCCC(O)C2)nc(N)c2c(N)nc3c(c12)CC(=O)N3C12CC3CC(CC(C3)C1)C2 (centres undefined) | inconclusive: 29.1 µM [falling, single point]
